# Measured values: the M2OR odorant receptor database
# Changes are numbered by the printed parent chain. This is a selection; strong and weak results do not stand in their true shares. Calls are pooled over several reports, among them a noisy single-well screen. This is one part of the list.
# Columns and labels:
# Conditions in all cases: stereoisomer not certain
# OR8H3 = test system: T1, OR8H3
# T1 sequence (whole entry): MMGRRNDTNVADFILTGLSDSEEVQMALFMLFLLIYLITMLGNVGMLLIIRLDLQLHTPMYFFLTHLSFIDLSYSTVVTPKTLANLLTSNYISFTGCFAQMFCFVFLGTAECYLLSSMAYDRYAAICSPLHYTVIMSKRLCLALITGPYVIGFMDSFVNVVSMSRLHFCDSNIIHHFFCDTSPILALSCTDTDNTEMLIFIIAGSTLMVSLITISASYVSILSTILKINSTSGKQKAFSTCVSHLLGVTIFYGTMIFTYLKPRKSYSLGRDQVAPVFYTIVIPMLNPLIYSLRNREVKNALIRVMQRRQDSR
# Summary of the method: (§1)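 Values were gathered from published papers (main text and supplementary material), with extra details requested from the original authors when needed, and checked for typos and inconsistencies. Each receptor–molecule pair is called responsive (active) if the original authors judged the measured signal statistically different from baseline, and non-responsive (inactive) otherwise. Assay methods varied by source, often transient mammalian cell-line luciferase assays. Recorded details include cell line, G-protein, co-transfected protein and tags.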
# OR8I2 = test system: T2, OR8I2
# T2 sequence (whole entry): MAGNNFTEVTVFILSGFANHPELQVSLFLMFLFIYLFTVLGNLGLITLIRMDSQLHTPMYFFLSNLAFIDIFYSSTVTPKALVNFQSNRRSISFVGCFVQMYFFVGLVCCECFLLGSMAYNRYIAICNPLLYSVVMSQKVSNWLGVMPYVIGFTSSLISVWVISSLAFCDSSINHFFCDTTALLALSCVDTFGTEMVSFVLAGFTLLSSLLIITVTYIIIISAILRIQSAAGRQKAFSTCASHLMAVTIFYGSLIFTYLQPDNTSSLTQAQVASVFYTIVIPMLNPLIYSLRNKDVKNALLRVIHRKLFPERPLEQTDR
# Summary of the method: as §1
# OR8J1 = test system: T3, OR8J1
# T3 sequence (whole entry): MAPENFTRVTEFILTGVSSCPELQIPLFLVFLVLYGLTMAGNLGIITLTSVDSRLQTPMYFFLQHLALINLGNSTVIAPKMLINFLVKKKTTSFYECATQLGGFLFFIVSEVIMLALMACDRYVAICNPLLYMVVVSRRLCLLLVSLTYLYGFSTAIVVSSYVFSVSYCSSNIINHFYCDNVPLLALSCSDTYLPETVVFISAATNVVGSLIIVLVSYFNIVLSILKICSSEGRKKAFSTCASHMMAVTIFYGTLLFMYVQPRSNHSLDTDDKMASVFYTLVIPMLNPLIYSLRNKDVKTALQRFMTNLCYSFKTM
# Summary of the method: as §1
# OR8J3 (Homo sapiens) = target: T4, OR8J3 (Homo sapiens) (UniProt Q8NGG0)
# T4 sequence (whole entry): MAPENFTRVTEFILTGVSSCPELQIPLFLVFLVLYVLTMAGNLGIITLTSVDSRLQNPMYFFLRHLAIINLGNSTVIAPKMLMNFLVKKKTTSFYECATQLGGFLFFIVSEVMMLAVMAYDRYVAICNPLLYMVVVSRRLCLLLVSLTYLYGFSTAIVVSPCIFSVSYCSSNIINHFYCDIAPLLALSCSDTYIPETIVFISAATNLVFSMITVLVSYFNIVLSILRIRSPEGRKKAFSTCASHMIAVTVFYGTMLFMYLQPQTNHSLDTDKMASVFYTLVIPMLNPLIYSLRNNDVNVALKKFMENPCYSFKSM
# Summary of the method: as §1
# OR8K1 (Homo sapiens) = target: T5, OR8K1 (Homo sapiens) (UniProt Q8NGG5)
# T5 sequence (whole entry): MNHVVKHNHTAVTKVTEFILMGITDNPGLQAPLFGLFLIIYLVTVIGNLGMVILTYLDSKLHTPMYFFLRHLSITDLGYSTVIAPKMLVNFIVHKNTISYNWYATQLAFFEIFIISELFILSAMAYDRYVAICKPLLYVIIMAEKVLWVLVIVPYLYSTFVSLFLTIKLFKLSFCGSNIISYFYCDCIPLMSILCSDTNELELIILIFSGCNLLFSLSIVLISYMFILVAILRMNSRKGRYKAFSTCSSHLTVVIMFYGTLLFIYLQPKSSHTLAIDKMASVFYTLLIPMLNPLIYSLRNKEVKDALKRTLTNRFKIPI
# Summary of the method: as §1
# OR8K3 = test system: T6, OR8K3
# T6 sequence (whole entry): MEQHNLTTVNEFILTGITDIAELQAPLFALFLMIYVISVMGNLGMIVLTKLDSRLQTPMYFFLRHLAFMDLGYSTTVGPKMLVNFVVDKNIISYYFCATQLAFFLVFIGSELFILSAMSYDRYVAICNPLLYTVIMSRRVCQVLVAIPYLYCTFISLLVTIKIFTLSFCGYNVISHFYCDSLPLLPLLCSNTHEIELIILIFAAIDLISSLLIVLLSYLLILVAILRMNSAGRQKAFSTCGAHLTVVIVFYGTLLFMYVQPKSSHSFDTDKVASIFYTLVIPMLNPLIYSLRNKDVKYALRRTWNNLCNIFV
# Summary of the method: as §1
# OR8K5 = test system: T7, OR8K5
# T7 sequence (whole entry): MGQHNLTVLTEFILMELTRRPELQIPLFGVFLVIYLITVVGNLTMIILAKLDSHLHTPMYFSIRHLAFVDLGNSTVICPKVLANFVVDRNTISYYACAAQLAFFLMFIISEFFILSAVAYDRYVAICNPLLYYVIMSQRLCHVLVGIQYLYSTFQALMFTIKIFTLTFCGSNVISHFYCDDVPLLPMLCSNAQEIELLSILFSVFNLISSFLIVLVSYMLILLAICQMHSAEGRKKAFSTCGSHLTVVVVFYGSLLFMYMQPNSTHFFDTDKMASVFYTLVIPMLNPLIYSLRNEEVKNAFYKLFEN
# Summary of the method: as §1
# OR8S1 = test system: T8, OR8S1
# T8 sequence (whole entry): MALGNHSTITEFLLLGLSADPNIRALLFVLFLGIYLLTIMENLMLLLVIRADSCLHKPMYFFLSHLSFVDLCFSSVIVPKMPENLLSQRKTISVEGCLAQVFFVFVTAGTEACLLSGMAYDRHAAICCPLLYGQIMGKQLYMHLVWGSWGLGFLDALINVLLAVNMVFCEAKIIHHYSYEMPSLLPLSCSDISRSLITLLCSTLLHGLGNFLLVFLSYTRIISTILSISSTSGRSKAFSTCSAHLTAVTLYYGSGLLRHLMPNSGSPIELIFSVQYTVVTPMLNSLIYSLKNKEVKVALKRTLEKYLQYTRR
# Summary of the method: as §1
# OR8U1 = test system: T9, OR8U1
# T9 sequence (whole entry): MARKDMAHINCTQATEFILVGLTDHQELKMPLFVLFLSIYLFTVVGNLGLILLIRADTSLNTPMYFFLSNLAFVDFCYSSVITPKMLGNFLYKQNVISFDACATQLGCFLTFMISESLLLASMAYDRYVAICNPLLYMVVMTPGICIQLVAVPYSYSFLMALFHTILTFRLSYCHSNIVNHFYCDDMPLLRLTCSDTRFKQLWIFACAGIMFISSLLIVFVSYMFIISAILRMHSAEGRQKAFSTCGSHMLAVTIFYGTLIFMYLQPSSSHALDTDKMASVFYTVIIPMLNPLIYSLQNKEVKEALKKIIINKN
# Summary of the method: as §1
# OR8U8 = test system: T10, OR8U8
# T10 sequence (whole entry): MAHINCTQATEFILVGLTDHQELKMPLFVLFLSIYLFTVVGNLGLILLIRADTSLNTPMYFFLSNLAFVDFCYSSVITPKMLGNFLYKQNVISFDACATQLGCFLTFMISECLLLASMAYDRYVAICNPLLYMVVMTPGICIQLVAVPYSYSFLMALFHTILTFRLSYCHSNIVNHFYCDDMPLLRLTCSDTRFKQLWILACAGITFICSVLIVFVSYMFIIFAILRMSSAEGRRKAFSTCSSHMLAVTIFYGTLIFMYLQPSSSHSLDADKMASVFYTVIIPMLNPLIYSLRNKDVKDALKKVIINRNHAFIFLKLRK
# Summary of the method: as §1
# OR8K5 (Homo sapiens) = target: T11, OR8K5 (Homo sapiens) (UniProt Q8NH50)
# T11 sequence (whole entry): T7 sequence (whole entry) with A49T, V118M
# Summary of the method: as §1
# OR8U3 (Homo sapiens) = target: T12, OR8U3 (Homo sapiens) (UniProt Q8NH85)
# T12 sequence (whole entry): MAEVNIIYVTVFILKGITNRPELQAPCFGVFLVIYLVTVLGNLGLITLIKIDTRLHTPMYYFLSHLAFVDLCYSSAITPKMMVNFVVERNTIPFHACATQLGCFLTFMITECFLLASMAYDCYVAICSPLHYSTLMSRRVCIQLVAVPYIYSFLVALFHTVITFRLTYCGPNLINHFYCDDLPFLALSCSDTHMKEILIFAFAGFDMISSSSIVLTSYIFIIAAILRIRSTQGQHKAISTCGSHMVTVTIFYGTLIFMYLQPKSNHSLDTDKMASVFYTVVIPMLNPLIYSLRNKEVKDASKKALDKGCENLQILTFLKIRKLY
# Summary of the method: as §1
SMILES,odorant receptor agonist call (OR8H3),odorant receptor agonist call (OR8I2),odorant receptor agonist call (OR8J1),odorant receptor agonist call (OR8J3 (Homo sapiens)),odorant receptor agonist call (OR8K1 (Homo sapiens)),odorant receptor agonist call (OR8K3),odorant receptor agonist call (OR8K5),odorant receptor agonist call (OR8S1),odorant receptor agonist call (OR8U1),odorant receptor agonist call (OR8U8),odorant receptor agonist call (OR8K5 (Homo sapiens)),odorant receptor agonist call (OR8U3 (Homo sapiens))
CC1=NC(C)SC1C (configuration not stated),inactive,inactive,inactive,inactive,inactive,inactive,inactive,inactive,inactive,inactive,–,–
CC(C)C(=O)O,inactive,inactive,inactive,inactive,inactive,inactive,inactive,inactive,inactive,inactive,–,–
CC(C)(C)c1ccc(CCC=O)cc1,inactive,inactive,inactive,inactive,inactive,inactive,inactive,inactive,inactive,inactive,–,–
CCCCCCOC(=O)CCC,inactive,inactive,inactive,inactive,inactive,inactive,inactive,inactive,inactive,inactive,–,–
CC(C)=CCCC(C)=CC=O,inactive,inactive,inactive,inactive,inactive,inactive,inactive,inactive,inactive,inactive,–,–
CC12CCC(CC1)C(C)(C)O2,inactive,inactive,inactive,inactive,inactive,inactive,inactive,inactive,inactive,inactive,–,–
CC(=O)OC1CC2CCC1(C)C2(C)C (configuration not stated),inactive,inactive,inactive,inactive,inactive,inactive,inactive,inactive,inactive,inactive,–,–
COc1cc(C=O)ccc1O,inactive,inactive,inactive,inactive,inactive,inactive,inactive,inactive,inactive,inactive,–,–
CCCCCCCOC(C)=O,inactive,inactive,inactive,inactive,inactive,inactive,inactive,inactive,inactive,inactive,–,–
CCCCCC(C)=O,inactive,inactive,inactive,inactive,inactive,inactive,inactive,inactive,inactive,inactive,–,–
COC(=O)c1ccccc1O,inactive,inactive,inactive,inactive,inactive,inactive,inactive,inactive,inactive,inactive,–,–
CCC1(O)C2(C)CCC(C2)C1(C)C (configuration not stated),inactive,inactive,inactive,inactive,inactive,inactive,inactive,inactive,inactive,inactive,–,–
CCCCO,inactive,inactive,inactive,inactive,inactive,inactive,inactive,inactive,inactive,inactive,–,–
CCCCCCCCOC(C)=O,inactive,inactive,inactive,inactive,inactive,inactive,inactive,inactive,inactive,inactive,–,–
CCCCCCCC=CC=O,inactive,inactive,active,inactive,inactive,inactive,inactive,inactive,inactive,inactive,–,–
C=C(C)C1CC=C(C)C(=O)C1 (configuration not stated),–,–,–,–,–,–,–,–,–,–,active,active
CC1=CCC(C(C)(C)O)CC1 (configuration not stated),inactive,inactive,inactive,inactive,inactive,inactive,inactive,inactive,inactive,inactive,–,–
CC(=O)C(C)=O,inactive,inactive,inactive,inactive,inactive,inactive,inactive,inactive,inactive,inactive,–,–
CCC=CCCO,inactive,inactive,inactive,inactive,inactive,inactive,inactive,inactive,inactive,inactive,–,–
COc1cc(C)ccc1O,inactive,inactive,inactive,inactive,inactive,inactive,inactive,inactive,inactive,inactive,–,–
CC1COCc2cc3c(cc21)C(C)(C)C(C)C3(C)C (configuration not stated),inactive,active,active,inactive,active,inactive,active,active,active,active,–,–
CC12CCC(C1)C(C)(C)C2=O (configuration not stated),inactive,inactive,inactive,inactive,inactive,inactive,inactive,inactive,inactive,inactive,–,–
CC(=O)OCC=C(C)CCC=C(C)C,inactive,inactive,inactive,inactive,inactive,inactive,inactive,inactive,inactive,inactive,–,–
CCCCCOC(C)=O,inactive,inactive,inactive,inactive,inactive,inactive,inactive,inactive,inactive,inactive,–,–
O=C1CCCCCCCCCCCC(=O)OCCO1,inactive,inactive,inactive,inactive,inactive,inactive,inactive,inactive,inactive,inactive,–,–
CC(=O)OC(C)(C)C1CC=C(C)CC1 (configuration not stated),inactive,inactive,inactive,inactive,inactive,inactive,inactive,inactive,inactive,inactive,–,–

# Record cards (already shown). Order of values: odorant receptor agonist call (OR8H3) | odorant receptor agonist call (OR8I2) | odorant receptor agonist call (OR8J1) | odorant receptor agonist call (OR8J3 (Homo sapiens)) | odorant receptor agonist call (OR8K1 (Homo sapiens)) | odorant receptor agonist call (OR8K3) | odorant receptor agonist call (OR8K5) | odorant receptor agonist call (OR8S1) | odorant receptor agonist call (OR8U1) | odorant receptor agonist call (OR8U8) | odorant receptor agonist call (OR8K5 (Homo sapiens)) | odorant receptor agonist call (OR8U3 (Homo sapiens))
# CC(C)=CCCC(C)=CC=O is listed as inactive | inactive | inactive | inactive | inactive | inactive | inactive | inactive | inactive | inactive | – | –
# C=C(C)C1CC=C(C)C(=O)C1 (configuration not stated) is listed as – | – | – | – | – | – | – | – | – | – | active | active
